Experimental data from the supplement of paper PMC10849652.
This is one part of the list.

Chains of the proteins cited; added tags and fusions are not shown. Lines headed by an entry give the natural chain unless they say otherwise; changes in a name come on top.
UniProt Q9Y6A1: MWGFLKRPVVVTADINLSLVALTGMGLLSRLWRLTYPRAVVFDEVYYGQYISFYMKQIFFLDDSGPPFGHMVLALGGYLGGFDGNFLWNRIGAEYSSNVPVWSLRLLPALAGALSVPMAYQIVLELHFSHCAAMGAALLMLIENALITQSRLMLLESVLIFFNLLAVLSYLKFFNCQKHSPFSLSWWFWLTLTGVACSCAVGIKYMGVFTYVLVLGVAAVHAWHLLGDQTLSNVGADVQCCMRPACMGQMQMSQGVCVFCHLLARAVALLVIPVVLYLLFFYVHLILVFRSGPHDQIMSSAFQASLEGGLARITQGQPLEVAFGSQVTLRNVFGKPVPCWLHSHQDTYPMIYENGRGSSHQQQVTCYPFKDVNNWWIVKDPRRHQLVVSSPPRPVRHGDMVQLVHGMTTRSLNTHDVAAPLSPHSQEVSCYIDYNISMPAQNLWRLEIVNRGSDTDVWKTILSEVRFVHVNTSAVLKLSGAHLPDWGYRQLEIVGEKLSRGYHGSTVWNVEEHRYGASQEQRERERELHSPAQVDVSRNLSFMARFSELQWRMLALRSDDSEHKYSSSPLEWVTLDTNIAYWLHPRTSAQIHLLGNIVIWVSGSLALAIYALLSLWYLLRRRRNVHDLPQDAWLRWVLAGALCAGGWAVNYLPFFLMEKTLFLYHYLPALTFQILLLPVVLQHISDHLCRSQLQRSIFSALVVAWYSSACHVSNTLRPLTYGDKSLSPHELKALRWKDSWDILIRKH
UniProt P51805: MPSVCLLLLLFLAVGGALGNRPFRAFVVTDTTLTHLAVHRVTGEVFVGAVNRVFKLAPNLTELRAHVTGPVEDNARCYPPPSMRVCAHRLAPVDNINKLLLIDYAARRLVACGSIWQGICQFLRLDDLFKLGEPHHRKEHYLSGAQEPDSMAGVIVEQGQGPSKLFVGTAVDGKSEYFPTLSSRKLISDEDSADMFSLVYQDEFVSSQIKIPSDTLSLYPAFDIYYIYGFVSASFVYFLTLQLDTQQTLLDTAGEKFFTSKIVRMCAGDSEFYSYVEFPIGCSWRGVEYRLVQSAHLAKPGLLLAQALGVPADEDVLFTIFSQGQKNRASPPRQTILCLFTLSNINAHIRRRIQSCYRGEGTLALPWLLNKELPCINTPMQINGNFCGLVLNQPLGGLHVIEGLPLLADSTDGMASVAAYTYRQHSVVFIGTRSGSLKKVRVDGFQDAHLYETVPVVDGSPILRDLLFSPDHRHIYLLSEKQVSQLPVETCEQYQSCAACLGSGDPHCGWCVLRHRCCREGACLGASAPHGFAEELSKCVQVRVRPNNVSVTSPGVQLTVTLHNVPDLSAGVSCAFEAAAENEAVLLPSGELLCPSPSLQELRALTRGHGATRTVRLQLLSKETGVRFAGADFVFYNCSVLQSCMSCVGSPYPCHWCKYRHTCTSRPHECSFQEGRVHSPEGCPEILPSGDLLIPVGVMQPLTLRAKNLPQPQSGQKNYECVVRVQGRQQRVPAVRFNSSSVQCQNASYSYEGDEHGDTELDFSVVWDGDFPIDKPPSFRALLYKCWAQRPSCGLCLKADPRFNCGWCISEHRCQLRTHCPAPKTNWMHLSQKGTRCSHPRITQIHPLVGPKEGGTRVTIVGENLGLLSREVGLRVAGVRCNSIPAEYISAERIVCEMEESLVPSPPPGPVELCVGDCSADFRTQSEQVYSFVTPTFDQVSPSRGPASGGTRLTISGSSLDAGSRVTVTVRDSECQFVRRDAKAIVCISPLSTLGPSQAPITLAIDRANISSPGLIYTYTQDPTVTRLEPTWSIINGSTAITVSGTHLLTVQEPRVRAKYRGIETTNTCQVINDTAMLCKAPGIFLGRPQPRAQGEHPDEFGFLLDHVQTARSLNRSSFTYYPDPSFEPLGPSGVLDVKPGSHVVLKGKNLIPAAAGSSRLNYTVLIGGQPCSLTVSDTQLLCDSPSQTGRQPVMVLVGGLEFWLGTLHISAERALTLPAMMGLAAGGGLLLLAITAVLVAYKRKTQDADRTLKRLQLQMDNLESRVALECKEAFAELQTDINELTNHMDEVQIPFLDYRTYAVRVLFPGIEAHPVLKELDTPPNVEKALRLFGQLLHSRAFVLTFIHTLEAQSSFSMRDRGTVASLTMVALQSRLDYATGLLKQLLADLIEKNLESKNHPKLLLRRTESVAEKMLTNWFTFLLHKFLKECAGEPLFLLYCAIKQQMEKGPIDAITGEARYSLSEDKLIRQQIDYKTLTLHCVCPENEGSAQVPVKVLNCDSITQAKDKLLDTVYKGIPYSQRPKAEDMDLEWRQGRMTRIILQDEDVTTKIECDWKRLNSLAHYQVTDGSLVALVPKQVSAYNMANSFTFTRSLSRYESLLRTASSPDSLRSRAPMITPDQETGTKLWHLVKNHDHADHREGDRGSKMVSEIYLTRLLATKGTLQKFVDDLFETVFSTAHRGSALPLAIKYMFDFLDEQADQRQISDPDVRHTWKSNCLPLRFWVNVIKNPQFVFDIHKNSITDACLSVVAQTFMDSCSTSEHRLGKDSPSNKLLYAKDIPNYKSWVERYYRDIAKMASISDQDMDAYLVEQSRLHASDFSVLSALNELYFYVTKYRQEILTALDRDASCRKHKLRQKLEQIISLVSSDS
UniProt Q9NRY6: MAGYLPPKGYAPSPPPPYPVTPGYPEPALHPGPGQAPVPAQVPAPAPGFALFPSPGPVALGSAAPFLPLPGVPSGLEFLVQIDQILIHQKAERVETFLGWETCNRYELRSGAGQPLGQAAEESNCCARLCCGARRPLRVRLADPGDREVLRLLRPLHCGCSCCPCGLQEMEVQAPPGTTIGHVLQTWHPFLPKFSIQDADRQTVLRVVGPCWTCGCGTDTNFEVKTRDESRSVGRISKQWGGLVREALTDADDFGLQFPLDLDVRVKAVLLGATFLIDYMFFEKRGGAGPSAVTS
UniProt Q15063: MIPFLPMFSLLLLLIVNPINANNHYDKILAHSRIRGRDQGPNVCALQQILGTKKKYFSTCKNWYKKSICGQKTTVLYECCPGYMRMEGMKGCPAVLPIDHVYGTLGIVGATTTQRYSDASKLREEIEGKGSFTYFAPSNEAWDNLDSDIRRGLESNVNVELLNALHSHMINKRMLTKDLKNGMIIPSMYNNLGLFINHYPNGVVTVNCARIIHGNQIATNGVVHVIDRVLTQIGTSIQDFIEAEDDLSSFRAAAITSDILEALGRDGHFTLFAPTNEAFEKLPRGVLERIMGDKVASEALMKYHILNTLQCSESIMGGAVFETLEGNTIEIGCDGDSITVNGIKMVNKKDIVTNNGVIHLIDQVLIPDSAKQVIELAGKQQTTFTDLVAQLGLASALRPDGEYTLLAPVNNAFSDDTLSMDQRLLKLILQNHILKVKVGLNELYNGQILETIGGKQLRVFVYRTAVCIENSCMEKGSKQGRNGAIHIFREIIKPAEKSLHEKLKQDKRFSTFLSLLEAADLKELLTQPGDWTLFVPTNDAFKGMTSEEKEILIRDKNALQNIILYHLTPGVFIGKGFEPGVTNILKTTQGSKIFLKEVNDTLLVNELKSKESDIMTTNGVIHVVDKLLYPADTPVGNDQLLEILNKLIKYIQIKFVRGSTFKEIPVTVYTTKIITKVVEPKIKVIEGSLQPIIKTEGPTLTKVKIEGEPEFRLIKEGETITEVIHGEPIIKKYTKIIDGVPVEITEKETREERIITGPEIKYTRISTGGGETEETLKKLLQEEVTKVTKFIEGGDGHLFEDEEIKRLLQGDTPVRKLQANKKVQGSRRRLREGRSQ
UniProt Q9BY77: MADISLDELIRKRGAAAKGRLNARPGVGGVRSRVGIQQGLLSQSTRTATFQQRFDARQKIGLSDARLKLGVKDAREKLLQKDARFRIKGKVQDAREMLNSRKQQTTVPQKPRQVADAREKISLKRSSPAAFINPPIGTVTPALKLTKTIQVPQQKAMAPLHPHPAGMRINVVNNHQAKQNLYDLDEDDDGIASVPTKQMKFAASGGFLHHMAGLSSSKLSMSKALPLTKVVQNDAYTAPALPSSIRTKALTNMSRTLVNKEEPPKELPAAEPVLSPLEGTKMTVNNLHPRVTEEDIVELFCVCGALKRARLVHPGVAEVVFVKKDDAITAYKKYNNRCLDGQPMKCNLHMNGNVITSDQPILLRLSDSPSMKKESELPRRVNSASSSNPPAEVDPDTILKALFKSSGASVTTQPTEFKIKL
UniProt O43157, whole entry, looked up: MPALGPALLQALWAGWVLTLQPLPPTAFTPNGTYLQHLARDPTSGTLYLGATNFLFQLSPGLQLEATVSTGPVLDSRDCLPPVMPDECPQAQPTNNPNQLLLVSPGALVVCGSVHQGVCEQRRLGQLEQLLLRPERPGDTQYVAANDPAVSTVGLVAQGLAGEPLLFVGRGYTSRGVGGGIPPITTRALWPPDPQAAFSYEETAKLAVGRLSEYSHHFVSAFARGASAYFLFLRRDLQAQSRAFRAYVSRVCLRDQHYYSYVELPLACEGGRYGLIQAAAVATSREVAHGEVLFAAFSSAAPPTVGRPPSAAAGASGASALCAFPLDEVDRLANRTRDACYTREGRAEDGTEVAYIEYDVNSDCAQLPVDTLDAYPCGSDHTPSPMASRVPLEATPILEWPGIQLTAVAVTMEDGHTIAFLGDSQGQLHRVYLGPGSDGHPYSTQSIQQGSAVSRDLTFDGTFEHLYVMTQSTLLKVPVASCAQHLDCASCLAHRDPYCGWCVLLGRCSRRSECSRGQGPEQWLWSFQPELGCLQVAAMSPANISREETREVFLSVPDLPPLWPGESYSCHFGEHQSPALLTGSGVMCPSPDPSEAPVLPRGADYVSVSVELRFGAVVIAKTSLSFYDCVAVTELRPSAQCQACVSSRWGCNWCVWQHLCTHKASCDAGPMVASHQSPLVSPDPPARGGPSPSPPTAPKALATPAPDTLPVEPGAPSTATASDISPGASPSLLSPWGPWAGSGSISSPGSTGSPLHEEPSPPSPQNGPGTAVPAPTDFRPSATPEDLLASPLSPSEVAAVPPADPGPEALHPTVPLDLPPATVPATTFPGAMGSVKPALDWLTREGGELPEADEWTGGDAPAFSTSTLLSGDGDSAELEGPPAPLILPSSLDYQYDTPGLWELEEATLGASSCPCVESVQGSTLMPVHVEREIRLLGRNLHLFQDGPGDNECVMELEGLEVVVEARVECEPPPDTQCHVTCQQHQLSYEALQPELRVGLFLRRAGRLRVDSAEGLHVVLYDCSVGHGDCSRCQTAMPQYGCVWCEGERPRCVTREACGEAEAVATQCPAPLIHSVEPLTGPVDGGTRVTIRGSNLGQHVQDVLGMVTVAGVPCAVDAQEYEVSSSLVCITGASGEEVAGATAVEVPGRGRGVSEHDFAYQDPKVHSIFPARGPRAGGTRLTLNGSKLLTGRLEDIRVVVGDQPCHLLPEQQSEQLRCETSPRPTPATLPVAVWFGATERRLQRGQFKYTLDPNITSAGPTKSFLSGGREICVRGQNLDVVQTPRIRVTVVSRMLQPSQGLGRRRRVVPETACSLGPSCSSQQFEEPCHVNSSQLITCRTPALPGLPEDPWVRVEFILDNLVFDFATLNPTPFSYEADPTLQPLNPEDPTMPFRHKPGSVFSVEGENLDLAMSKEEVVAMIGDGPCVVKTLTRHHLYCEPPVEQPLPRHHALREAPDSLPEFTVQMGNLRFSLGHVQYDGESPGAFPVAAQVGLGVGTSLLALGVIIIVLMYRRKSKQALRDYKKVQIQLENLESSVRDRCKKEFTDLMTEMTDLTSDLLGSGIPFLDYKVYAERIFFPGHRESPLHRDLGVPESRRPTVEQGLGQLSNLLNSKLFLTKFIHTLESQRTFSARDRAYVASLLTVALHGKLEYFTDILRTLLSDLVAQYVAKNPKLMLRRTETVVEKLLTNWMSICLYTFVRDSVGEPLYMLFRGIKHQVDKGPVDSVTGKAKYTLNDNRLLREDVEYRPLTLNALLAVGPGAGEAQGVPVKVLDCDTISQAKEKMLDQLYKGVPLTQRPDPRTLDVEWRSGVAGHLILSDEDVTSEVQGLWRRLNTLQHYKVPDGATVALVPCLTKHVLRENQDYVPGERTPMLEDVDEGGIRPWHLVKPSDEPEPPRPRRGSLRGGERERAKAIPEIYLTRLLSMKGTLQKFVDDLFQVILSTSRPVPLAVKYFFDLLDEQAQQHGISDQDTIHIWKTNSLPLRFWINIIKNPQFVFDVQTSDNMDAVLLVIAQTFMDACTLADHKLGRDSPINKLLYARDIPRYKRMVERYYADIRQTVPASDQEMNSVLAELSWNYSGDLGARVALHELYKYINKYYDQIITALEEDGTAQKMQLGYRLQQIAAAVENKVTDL
UniProt P41247: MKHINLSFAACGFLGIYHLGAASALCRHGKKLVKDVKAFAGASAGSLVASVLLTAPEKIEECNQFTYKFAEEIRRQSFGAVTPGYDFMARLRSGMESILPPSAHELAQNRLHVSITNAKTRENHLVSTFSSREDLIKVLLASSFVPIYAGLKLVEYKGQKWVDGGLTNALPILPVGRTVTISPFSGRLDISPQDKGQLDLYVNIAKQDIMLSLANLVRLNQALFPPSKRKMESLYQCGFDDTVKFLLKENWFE

Columns and labels:
Experiment in all cases: log2 fold change, soluble protein after heating vs DMSO (PISA); higher = thermal stabilisation; K562 lysate, 10 uM; active = over 0.2 and 3.5 SD of the protein, either way, in both replicates (recomputed)
[1] = compound: C1=CC=C(C=C1)[C@H](COC2=CC3=C(C=C2)NC(=O)N3)NC(=O)C4=CC=CN(C4=O)CC5=CC(=C(C=C5)F)F
Method in brief: (§1)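 Values give the log-two fold change in thermal stability against solvent controls, from duplicates. Crude K562 extract at 1 mg/mL protein, made by dounce homogenisation in PBS pH 7.4 with 1 mM MgCl2, was treated with 10 μM compound for 30 min. After 3 min heating across 48°C-58°C, aliquots were pooled, adjusted to 0.5% NP-40 at 4°C and centrifuged at 21,000xg for 90 min. The supernatant was measured by TMTpro 16plex LC-MS/MS with channel sums equalised.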

[2] = compound: CC1=C(SC2=C1C(=N[C@H](C3=NN=C(N32)C)CC(=O)N)C4=CC=C(C=C4)Cl)C
Method in brief: as §1

[3] = compound: Cc1sc2c(c1C)C(c1ccc(Cl)cc1)=N[C@@H](CC(=O)OC(C)(C)C)c1nnc(C)n1-2
Method in brief: as §1

[4] = compound: c1ccc([C@@H]2C[C@H]2NC2CCNCC2)cc1
Method in brief: as §1

[5] = compound: CC1=C2C(=CC=C1)N=C(N(C2=O)C3=CC=CC=C3C)CN4C=NC5=C(N=CN=C54)N
Method in brief: as §1

What does the source list for PNMA8A (UniProt Q86V59)?
log2 fold change [1]: inactive: -0.43; log2 fold change [2]: inactive: 0.061; log2 fold change [3]: inactive: -0.048

Which results are given for PLEKHG2 (UniProt Q9H7P9)?
log2 fold change [3]: inactive: 0.117; log2 fold change [4]: inactive: 0.128

How did the log2 fold change [3] turn out when PLPPR3 isoform 3 (UniProt Q6T4P5) was run?
The log2 fold change was inactive: 0.288.

PLEKHH2 (UniProt E5RGK1) was tested. Which log2 fold change [5] did it give?
The log2 fold change was inactive: -0.088.

What about the log2 fold change [3] of the same target?
Its log2 fold change is inactive: 0.07.

What about the log2 fold change [4] of the same target?
The log2 fold change was inactive: -0.061.

Which results are given for POM121C (UniProt A8CG34)?
log2 fold change [1]: inactive: 0.058; log2 fold change [2]: inactive: 0.042; log2 fold change [4]: inactive: -0.02

How did the log2 fold change [3] turn out when POMT1 (UniProt Q9Y6A1) was run?
The log2 fold change was inactive: 0.017.

For POGZ (UniProt Q7Z3K3), which log2 fold change [5] is on record?
The log2 fold change was inactive: 0.087.

What about the log2 fold change [3] of the same target?
The log2 fold change was inactive: -0.119.

And the log2 fold change [4]?
Its log2 fold change is inactive: 0.305.

Which results are given for POLD4 (UniProt Q9HCU8)?
log2 fold change [5]: inactive: -0.033; log2 fold change [3]: inactive: -0.098

Which log2 fold change [1] does the source give for POLR3A (UniProt O14802) here?
Its log2 fold change is inactive: 0.009.

What about the log2 fold change [2] of the same target?
The log2 fold change was inactive: 0.028.

What about the log2 fold change [5] of the same target?
Its log2 fold change is inactive: -0.001.

And the log2 fold change [3]?
Its log2 fold change is inactive: 0.006.

And the log2 fold change [4]?
The log2 fold change was inactive: -0.039.

How did the log2 fold change [1] turn out when PLXNA3 (UniProt P51805) was run?
Its log2 fold change is inactive: -0.056.

And the log2 fold change [2]?
Its log2 fold change is inactive: -0.026.

And the log2 fold change [5]?
The log2 fold change was inactive: 0.17.

What about the log2 fold change [4] of the same target?
Its log2 fold change is inactive: -0.37.

PPHLN1 (UniProt Q8NEY8) was tested. Which log2 fold change [5] did it give?
Its log2 fold change is inactive: 0.028.

And the log2 fold change [4]?
Its log2 fold change is inactive: -0.047.

How did the log2 fold change [5] turn out when PLSCR3 (UniProt Q9NRY6) was run?
The log2 fold change was inactive: 0.402.

And the log2 fold change [3]?
The log2 fold change was inactive: 0.21.

What about the log2 fold change [4] of the same target?
Its log2 fold change is inactive: 0.034.

Which results are given for PPCS (UniProt Q9HAB8)?
log2 fold change [1]: inactive: -0.008; log2 fold change [2]: inactive: -0.01; log2 fold change [5]: inactive: 0.062; log2 fold change [3]: inactive: 0.06; log2 fold change [4]: inactive: 0.058

Which log2 fold change [5] does the source give for POC1A (UniProt Q8NBT0) here?
The log2 fold change was inactive: -0.079.

And the log2 fold change [4]?
The log2 fold change was inactive: -0.177.

PODXL (UniProt O00592) was tested. Which log2 fold change [4] did it give?
The log2 fold change was inactive: 0.021.

What does the source list for POC1B (UniProt Q8TC44)?
log2 fold change [5]: inactive: 0.036; log2 fold change [3]: inactive: 0.02

How did the log2 fold change [3] turn out when POLR2F (UniProt U3KPV3) was run?
Its log2 fold change is inactive: -0.113.

For POSTN (UniProt Q15063), which log2 fold change [1] is on record?
The log2 fold change was inactive: -0.036.

What about the log2 fold change [2] of the same target?
Its log2 fold change is inactive: 0.064.

What about the log2 fold change [5] of the same target?
The log2 fold change was inactive: 0.037.

And the log2 fold change [4]?
The log2 fold change was inactive: 0.003.

How did the log2 fold change [5] turn out when PLEKHM1 (UniProt Q9Y4G2) was run?
The log2 fold change was inactive: 0.142.

What does the source list for PPIB (UniProt P23284)?
log2 fold change [1]: inactive: 0.015; log2 fold change [2]: inactive: -0.003; log2 fold change [5]: inactive: 0.013; log2 fold change [3]: inactive: 0.007; log2 fold change [4]: inactive: -0.005

With POF1B isoform 1 (UniProt Q8WVV4) as the target, how does the log2 fold change [3] read?
The log2 fold change was inactive: 0.038.

And the log2 fold change [4]?
The log2 fold change was inactive: -0.218.

With PLPP6 (UniProt Q8IY26) as the target, how does the log2 fold change [5] read?
Its log2 fold change is inactive: -0.036.

What about the log2 fold change [3] of the same target?
Its log2 fold change is inactive: -0.014.

And the log2 fold change [4]?
Its log2 fold change is inactive: 0.059.

For POLDIP3 (UniProt Q9BY77), which log2 fold change [1] is on record?
Its log2 fold change is inactive: 0.116.

What about the log2 fold change [2] of the same target?
Its log2 fold change is inactive: -0.067.

And the log2 fold change [5]?
The log2 fold change was inactive: 0.116.

What about the log2 fold change [3] of the same target?
Its log2 fold change is inactive: 0.096.

What about the log2 fold change [4] of the same target?
The log2 fold change was inactive: -0.1.

Which results are given for POLR1E (UniProt Q9GZS1)?
log2 fold change [1]: inactive: -0.016; log2 fold change [2]: inactive: -0.046; log2 fold change [5]: inactive: 0.005; log2 fold change [3]: inactive: -0.019; log2 fold change [4]: inactive: 0.031

With PLTP (UniProt P55058) as the target, how does the log2 fold change [5] read?
Its log2 fold change is inactive: 0.168.

What about the log2 fold change [3] of the same target?
Its log2 fold change is inactive: -0.001.

And the log2 fold change [4]?
Its log2 fold change is inactive: 0.333.

With PNPLA2 (UniProt Q96AD5) as the target, how does the log2 fold change [1] read?
The log2 fold change was inactive: -0.02.

What about the log2 fold change [2] of the same target?
The log2 fold change was inactive: -0.054.

What about the log2 fold change [5] of the same target?
Its log2 fold change is inactive: -0.033.

What about the log2 fold change [3] of the same target?
Its log2 fold change is inactive: 0.016.

And the log2 fold change [4]?
Its log2 fold change is inactive: -0.064.

Which log2 fold change [5] does the source give for PLEKHG4 (UniProt Q58EX7) here?
Its log2 fold change is inactive: 0.06.

What about the log2 fold change [3] of the same target?
Its log2 fold change is inactive: 0.052.

And the log2 fold change [4]?
Its log2 fold change is inactive: 0.017.

Which log2 fold change [3] does the source give for PLXNB1 (UniProt O43157) here?
The log2 fold change was inactive: -0.082.

PPFIBP2 (UniProt Q8ND30) was tested. Which log2 fold change [4] did it give?
The log2 fold change was inactive: 0.342.

With PNPLA4 (UniProt P41247) as the target, how does the log2 fold change [5] read?
Its log2 fold change is inactive: -0.009.

What about the log2 fold change [3] of the same target?
Its log2 fold change is inactive: 0.201.

And the log2 fold change [4]?
The log2 fold change was inactive: -0.019.

For POP5 (UniProt Q969H6), which log2 fold change [1] is on record?
The log2 fold change was inactive: -0.063.

And the log2 fold change [2]?
The log2 fold change was inactive: -0.205.

And the log2 fold change [5]?
Its log2 fold change is inactive: 0.026.

What about the log2 fold change [3] of the same target?
The log2 fold change was inactive: -0.036.

And the log2 fold change [4]?
The log2 fold change was inactive: 0.177.

With POTEKP (UniProt Q9BYX7) as the target, how does the log2 fold change [1] read?
The log2 fold change was inactive: -0.21.

And the log2 fold change [2]?
The log2 fold change was inactive: -0.065.

And the log2 fold change [3]?
Its log2 fold change is inactive: 0.052.

With PML isoform 11 (UniProt P29590) as the target, how does the log2 fold change [5] read?
The log2 fold change was inactive: 0.055.

What about the log2 fold change [3] of the same target?
Its log2 fold change is inactive: -0.085.

What about the log2 fold change [4] of the same target?
The log2 fold change was inactive: -0.061.

Which log2 fold change [5] does the source give for PPHLN1 isoform 3 (UniProt Q8NEY8) here?
The log2 fold change was inactive: -0.123.

Which results are given for POLR2J (UniProt P52435)?
log2 fold change [1]: inactive: 0.075; log2 fold change [2]: inactive: 0.028; log2 fold change [3]: inactive: 0.02
